Data: article PMC6328613
No constants are given. Whether binding was seen depends on the method and setting. For some assays here: In cells and extracts the contact can be indirect. Some results given as binding are weak or reduced against the parent protein; the word gives no strength. For some assays here: Tags and fused reporters may be left off the sequences shown. Each block holds one binder with its values, some of them ahead of it.

By UniProt entry, the sequences of proteins in these tests, tags left out. Where a name states a change or a piece, a line headed by the entry shows the natural chain unless it says otherwise. Chains listed by the source or under a name are the forms on record and can include a tag or linker.
UniProt P84077: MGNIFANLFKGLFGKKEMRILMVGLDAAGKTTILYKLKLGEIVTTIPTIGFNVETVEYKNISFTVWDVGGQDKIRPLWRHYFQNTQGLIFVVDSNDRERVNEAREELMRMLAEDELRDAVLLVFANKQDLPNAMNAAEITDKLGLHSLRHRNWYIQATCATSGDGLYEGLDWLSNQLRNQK
GST-tagged Δ14Arf1 Q71L (P84077, form named): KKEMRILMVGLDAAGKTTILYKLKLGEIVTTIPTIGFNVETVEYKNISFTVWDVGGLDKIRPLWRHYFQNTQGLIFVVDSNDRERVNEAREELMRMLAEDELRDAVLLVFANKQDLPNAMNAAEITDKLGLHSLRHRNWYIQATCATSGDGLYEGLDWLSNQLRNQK
GST-tagged Δ14Arf3-GTP (Q71L) (P61204, form named): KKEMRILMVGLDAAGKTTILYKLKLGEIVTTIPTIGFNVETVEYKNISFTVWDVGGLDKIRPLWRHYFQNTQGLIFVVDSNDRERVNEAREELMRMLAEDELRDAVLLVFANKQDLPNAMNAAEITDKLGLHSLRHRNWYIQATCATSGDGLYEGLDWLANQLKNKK

Key:
GST-tagged Δ14Arf1 Q71L [1] = biological target: GST-tagged Δ14Arf1 Q71L (UniProt P84077); test: pull-down; direct binding of GORAB and Scyl1 to Arf1 (Supplementary Figure 1G); set-up not shown; both purified
[2] = biological target: GST-tagged Δ14Arf3-GTP (Q71L) (UniProt P61204); test: pull-down; pull-downs of GORAB and Scyl1 with GTP- and GDP-locked Arfs (Supplementary Figure 1F); set-up not shown
GST-tagged Δ14Arf1 Q71L [3] = biological target: GST-tagged Δ14Arf1 Q71L (UniProt P84077); test: as above
[4] = biological target: recombinant N-myristoylated human ARF1 (human) (UniProt P84077); test: liposome recruitment assay; Golgi-lipid liposomes (200 nm) with 10 µM MBP-Scyl1, 10 µM recombinant coatomer, 5 µM myr-ARF1, some with 100 µM GTPγS, 37 °C 20 min; flotation on sucrose, western blotting; both purified
[5] = biological target: Scyl1 (yeast two-hybrid fusion) (UniProt Q96KG9); test: two-hybrid; Matchmaker Gold system, yeast strain Y2HGold; AD prey and BD bait co-transformed; growth on quadruple drop-out (SD/-Ade/-His/-Leu/-Trp) plates at 30 °C

binding (GST-tagged Δ14Arf1 Q71L [1]): binds
binding [2]: binds
binding (GST-tagged Δ14Arf1 Q71L [3]): binds
B1: Scyl1 (construct and source of Supplementary Figure 1 not shown) (protein, UniProt Q96KG9 1-808)
chain: MWFFARDPVRDFPFELIPEPPEGGLPGPWALHRGRKKATGSPVSIFVYDVKPGAEEQTQVAKAAFKRFKTLRHPNILAYIDGLETEKCLHVVTEAVTPLGIYLKARVEAGGLKELEISWGLHQIVKALSFLVNDCSLIHNNVCMAAVFVDRAGEWKLGGLDYMYSAQGNGGGPPRKGIPELEQYDPPELADSSGRVVREKWSADMWRLGCLIWEVFNGPLPRAAALRNPGKIPKTLVPHYCELVGANPKVRPNPARFLQNCRAPGGFMSNRFVETNLFLEEIQIKEPAEKQKFFQELSKSLDAFPEDFCRHKVLPQLLTAFEFGNAGAVVLTPLFKVGKFLSAEEYQQKIIPVVVKMFSSTDRAMRIRLLQQMEQFIQYLDEPTVNTQIFPHVVHGFLDTNPAIREQTVKSMLLLAPKLNEANLNVELMKHFARLQAKDEQGPIRCNTTVCLGKIGSYLSASTRHRVLTSAFSRATRDPFAPSRVAGVLGFAATHNLYSMNDCAQKILPVLCGLTVDPEKSVRDQAFKAIRSFLSKLESVSEDPTQLEEVEKDVHAASSPGMGGAAASWAGWAVTGVSSLTSKLIRSHPTTAPTETNIPQRPTPEGVPAPAPTPVPATPTTSGHWETQEEDKDTAEDSSTADRWDDEDWGSLEQEAESVLAQQDDWSTGGQVSRASQVSNSDHKSSKSPESDWSSWEAEGSWEQGWQEPSSQEPPPDGTRLASEYNWGGPESSDKGDPFATLSARPSTQPRPDSWGEDNWEGLETDSRQVKAELARKKREERRREMEAKRAERKVAKGPMKLGARKLD

binding [4]: binds
B2: MBP-Scyl1 (protein, UniProt Q96KG9 1-808)
chain: MWFFARDPVRDFPFELIPEPPEGGLPGPWALHRGRKKATGSPVSIFVYDVKPGAEEQTQVAKAAFKRFKTLRHPNILAYIDGLETEKCLHVVTEAVTPLGIYLKARVEAGGLKELEISWGLHQIVKALSFLVNDCSLIHNNVCMAAVFVDRAGEWKLGGLDYMYSAQGNGGGPPRKGIPELEQYDPPELADSSGRVVREKWSADMWRLGCLIWEVFNGPLPRAAALRNPGKIPKTLVPHYCELVGANPKVRPNPARFLQNCRAPGGFMSNRFVETNLFLEEIQIKEPAEKQKFFQELSKSLDAFPEDFCRHKVLPQLLTAFEFGNAGAVVLTPLFKVGKFLSAEEYQQKIIPVVVKMFSSTDRAMRIRLLQQMEQFIQYLDEPTVNTQIFPHVVHGFLDTNPAIREQTVKSMLLLAPKLNEANLNVELMKHFARLQAKDEQGPIRCNTTVCLGKIGSYLSASTRHRVLTSAFSRATRDPFAPSRVAGVLGFAATHNLYSMNDCAQKILPVLCGLTVDPEKSVRDQAFKAIRSFLSKLESVSEDPTQLEEVEKDVHAASSPGMGGAAASWAGWAVTGVSSLTSKLIRSHPTTAPTETNIPQRPTPEGVPAPAPTPVPATPTTSGHWETQEEDKDTAEDSSTADRWDDEDWGSLEQEAESVLAQQDDWSTGGQVSRASQVSNSDHKSSKSPESDWSSWEAEGSWEQGWQEPSSQEPPPDGTRLASEYNWGGPESSDKGDPFATLSARPSTQPRPDSWGEDNWEGLETDSRQVKAELARKKREERRREMEAKRAERKVAKGPMKLGARKLD

binding [5]: binds
B3: Scyl1 (yeast two-hybrid fusion) (protein, UniProt Q96KG9 1-808)
chain: MWFFARDPVRDFPFELIPEPPEGGLPGPWALHRGRKKATGSPVSIFVYDVKPGAEEQTQVAKAAFKRFKTLRHPNILAYIDGLETEKCLHVVTEAVTPLGIYLKARVEAGGLKELEISWGLHQIVKALSFLVNDCSLIHNNVCMAAVFVDRAGEWKLGGLDYMYSAQGNGGGPPRKGIPELEQYDPPELADSSGRVVREKWSADMWRLGCLIWEVFNGPLPRAAALRNPGKIPKTLVPHYCELVGANPKVRPNPARFLQNCRAPGGFMSNRFVETNLFLEEIQIKEPAEKQKFFQELSKSLDAFPEDFCRHKVLPQLLTAFEFGNAGAVVLTPLFKVGKFLSAEEYQQKIIPVVVKMFSSTDRAMRIRLLQQMEQFIQYLDEPTVNTQIFPHVVHGFLDTNPAIREQTVKSMLLLAPKLNEANLNVELMKHFARLQAKDEQGPIRCNTTVCLGKIGSYLSASTRHRVLTSAFSRATRDPFAPSRVAGVLGFAATHNLYSMNDCAQKILPVLCGLTVDPEKSVRDQAFKAIRSFLSKLESVSEDPTQLEEVEKDVHAASSPGMGGAAASWAGWAVTGVSSLTSKLIRSHPTTAPTETNIPQRPTPEGVPAPAPTPVPATPTTSGHWETQEEDKDTAEDSSTADRWDDEDWGSLEQEAESVLAQQDDWSTGGQVSRASQVSNSDHKSSKSPESDWSSWEAEGSWEQGWQEPSSQEPPPDGTRLASEYNWGGPESSDKGDPFATLSARPSTQPRPDSWGEDNWEGLETDSRQVKAELARKKREERRREMEAKRAERKVAKGPMKLGARKLD
